Here are results for one molecule from patent publication US20180186880A1.

Sequences of proteins named here, by UniProt entry; tags and fusion partners are left off. Residues count along the entry.
UniProt Q8TDQ0, residues 22-202: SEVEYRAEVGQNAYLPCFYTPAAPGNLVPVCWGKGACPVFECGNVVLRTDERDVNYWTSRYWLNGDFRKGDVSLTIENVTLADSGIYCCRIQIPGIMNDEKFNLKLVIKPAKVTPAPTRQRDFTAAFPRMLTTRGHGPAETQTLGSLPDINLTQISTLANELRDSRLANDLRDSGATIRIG

For this test, the target named is TIM-3 ECD (extracellular domain of T cell immunoglobulin and mucin domain 3 protein) (UniProt Q8TDQ0). Kind of test: adsorption ELISA on TIM-3 ECD.

Results are given in words; binding and its absence hold for the method and conditions named. Some entries that bind do so weakly or less than the wild type.

B1: TRL6061 (antibody, V domains shown)
VH: QVQLVESGGGVVQPGRSLRLSCAASGFMFSTSAMHWVRQTPGKGLEWLAVIWHDGSEKYYADSVKGRFSISRDNYRDTLYLQMNNLRVEDTAIYYCRGGDVYEIWGQGTMVAVSS
VL: DDIMLTQPPSVSVSPGQTARITCSGDAVAKRYVYWYQQKSGQAPVLVMYEDNKRPSGIPERFSGSSSGTKATLTITGALVEDEADYYCYSTDSSGNLGAFGGGSKLTVL
Take B1: the binding entry is “binds”.
